These are yes or no findings as the source states them, for the method shown. For part of these data: Binding seen in cells or lysates may run through a third protein. Some entries that bind do so weakly or less than the wild type. For part of these data: Tags and fused reporters may be left off the sequences shown.
Tests used:
[1] = target: YN-ROP11 (UniProt O82481); experiment: split reporter
[2] = target: YN-ROP9 (UniProt O82480); experiment: split reporter
[3] = target: YN-ROP2 (UniProt Q38919); experiment: split reporter
[4] = target: YN-ROP4 (UniProt Q38937); experiment: split reporter
[5] = target: YN-rop9^CA (UniProt O82480); experiment: split reporter
[6] = target: ROP4 in pGBT9.BS (pGBT ROP4) (UniProt Q38937); experiment: two-hybrid
[7] = target: ROP11 in pGBT9.BS (pGBT ROP11) (UniProt O82481); experiment: two-hybrid
[8] = target: ROP2 in pGBT9.BS (pGBT ROP2) (UniProt Q38919); experiment: two-hybrid
[9] = target: ROP9 in pGBT9.BS (pGBT ROP9) (UniProt O82480); experiment: two-hybrid

By UniProt entry, the sequences of proteins in these tests, tags left out. Where a name states a change or a piece, a line headed by the entry shows the natural chain unless it says otherwise. Chains listed by the source or under a name are the forms on record and can include a tag or linker.
UniProt O82481: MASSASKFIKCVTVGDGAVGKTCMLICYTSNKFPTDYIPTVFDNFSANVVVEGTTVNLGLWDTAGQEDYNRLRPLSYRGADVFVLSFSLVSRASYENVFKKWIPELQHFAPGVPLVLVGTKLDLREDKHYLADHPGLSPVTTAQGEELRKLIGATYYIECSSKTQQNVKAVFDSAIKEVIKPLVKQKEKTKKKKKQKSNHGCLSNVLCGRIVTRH
UniProt O82480: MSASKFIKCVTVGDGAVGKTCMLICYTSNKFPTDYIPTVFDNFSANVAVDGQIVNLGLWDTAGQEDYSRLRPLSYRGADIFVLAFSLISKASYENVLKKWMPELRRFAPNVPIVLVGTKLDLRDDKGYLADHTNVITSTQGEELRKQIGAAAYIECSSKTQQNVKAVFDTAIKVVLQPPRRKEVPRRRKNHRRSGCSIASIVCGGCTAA
YN-rop9^CA (O82480, form named): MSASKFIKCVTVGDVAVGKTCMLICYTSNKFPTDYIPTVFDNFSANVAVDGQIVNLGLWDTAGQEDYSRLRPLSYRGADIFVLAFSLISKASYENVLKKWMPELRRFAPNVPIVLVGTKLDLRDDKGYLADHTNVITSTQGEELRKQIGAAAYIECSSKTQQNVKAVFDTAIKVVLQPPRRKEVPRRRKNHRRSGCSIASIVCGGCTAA
UniProt Q38919: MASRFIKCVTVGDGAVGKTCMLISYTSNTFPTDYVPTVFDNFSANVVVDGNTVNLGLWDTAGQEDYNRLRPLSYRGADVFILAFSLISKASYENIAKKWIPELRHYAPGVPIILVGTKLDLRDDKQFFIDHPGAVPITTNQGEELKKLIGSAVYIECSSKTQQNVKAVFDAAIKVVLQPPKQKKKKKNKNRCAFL
UniProt Q38937: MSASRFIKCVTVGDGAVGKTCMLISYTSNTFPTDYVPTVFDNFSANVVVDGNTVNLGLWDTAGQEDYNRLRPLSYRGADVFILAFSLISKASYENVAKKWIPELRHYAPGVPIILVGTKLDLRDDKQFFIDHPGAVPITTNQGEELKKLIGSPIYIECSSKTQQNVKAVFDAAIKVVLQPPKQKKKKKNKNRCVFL

Measured: binding

B1: ICR2 fused at its carboxy terminus to the C-terminal half of YFP (ICR2-YC) (protein, UniProt Q9ZQC5 56-583)
chain: ADRRSPRTPVNEIQKKRTGKTPELASQISQLQEELKKAKEQLSASEALKKEAQDQAEETKQQLMEINASEDSRIDELRKLSQERDKAWQSELEAMQRQHAMDSAALSSTMNEVQKLKAQLSESENVENLRMELNETLSLVEKLRGELFDAKEGEAQAHEIVSGTEKQLEIANLTLEMLRSDGMKMSEACNSLTTELEQSKSEVRSLEQLVRQLEEEDEARGNANGDSSSVEELKEEINVARQEISQLKSAVEVTERRYHEEYIQSTLQIRTAYEQVDEVKSGYAQREAELGEELKKTKAERDSLHERLMDKEAKLRILVDENEILNSKIKEKEEVYLNLENSLNQNEPEDTGELKKLESDVMELRANLMDKEMELQSVMSQYESLRSEMETMQSEKNKAIDEALAKLGSLTEEADKSGKRAENATEQLGAAQVTNTELEAELRRLKVQCDQWRKAAEAAATMLSGGNNNNNSNGKYVERTGSLESPLRRRNVNMSPYMGETDDELSSPKKKNGSMLKKIGVLLKKSQK
binds: [1] | [2] | [3] | [4] | [5]

B2: ICR2 in pGAD GH (pGAD-ICR2) (protein, UniProt Q9ZQC5 1-583)
chain: MQTPKPRPGSLEVPQKKSPASTPKTARKLKTSESDPVSSPNTKIRTPKTQSPKVVADRRSPRTPVNEIQKKRTGKTPELASQISQLQEELKKAKEQLSASEALKKEAQDQAEETKQQLMEINASEDSRIDELRKLSQERDKAWQSELEAMQRQHAMDSAALSSTMNEVQKLKAQLSESENVENLRMELNETLSLVEKLRGELFDAKEGEAQAHEIVSGTEKQLEIANLTLEMLRSDGMKMSEACNSLTTELEQSKSEVRSLEQLVRQLEEEDEARGNANGDSSSVEELKEEINVARQEISQLKSAVEVTERRYHEEYIQSTLQIRTAYEQVDEVKSGYAQREAELGEELKKTKAERDSLHERLMDKEAKLRILVDENEILNSKIKEKEEVYLNLENSLNQNEPEDTGELKKLESDVMELRANLMDKEMELQSVMSQYESLRSEMETMQSEKNKAIDEALAKLGSLTEEADKSGKRAENATEQLGAAQVTNTELEAELRRLKVQCDQWRKAAEAAATMLSGGNNNNNSNGKYVERTGSLESPLRRRNVNMSPYMGETDDELSSPKKKNGSMLKKIGVLLKKSQK
binds: [6] | [7] | [8] | [9]

From publication doi:10.1101/2021.01.08.425872
